PubChem BioAssay AID1259308 – NCATS | 2017
Purpose: 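Genes whose loss raises luciferase production in HEK293 cells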 (primary screen). System: human HEK293 embryonic kidney cells stably expressing firefly luciferase (HEK-CMV-Luc2-Hygro). Knock-down reagent: single siRNA against human genes, 0.8 pmol siRNA per well. Time to read-out: 72 h. Detection: 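Reporter luminescence and viable-cell signal on separate replicate plates, given as percent of non-targeting control and median/MAD z-scores, plus per-cell luciferase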. Reading the numbers: total luciferase, z-score and total luciferase, % of control: higher = more reporter protein produced; luciferase per cell, z-score: higher = more reporter output per viable cell; viable cells, % of control: higher = more viable cells. Hit rule: 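An siRNA counts as active if its total luciferase robust z-score exceeds 3; genes with two or more such siRNAs out of three were retested with fresh siRNAs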. Meaning of the calls: active = raised luciferase; inactive = no rise.
In all, the deposit lists about 59,000 reagents; this is a random part of them. About 1,510 of them (2.6%) were called active. 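Calls use total luciferase alone and ignore viability, so some active siRNAs may act by altering cell number.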 The numbers tell different reagents against one gene apart.

| gene | reagent no. | total luciferase, z-score | total luciferase, % of control | luciferase per cell, z-score | viable cells, % of control | activity call |
| --- | --- | --- | --- | --- | --- | --- |
| FRAT1 | 1 | 0.352 | 88.9 | 0.0621 | 97.7 | inactive |
| FRAT1 | 2 | 0.387 | 89.6 | -0.11 | 103 | inactive |
| FRAT1 | 3 | -1.16 | 58.7 | -1.28 | 92.1 | inactive |
| ATP2B3 | 1 | 1.35 | 109 | 0.544 | 105 | inactive |
| ATP2B3 | 2 | -0.989 | 62.2 | -1.76 | 111 | inactive |
| ATP2B3 | 3 | -0.193 | 78 | -0.0673 | 88.8 | inactive |
| LINC01822 | 1 | 0.175 | 85.4 | 0.396 | 86 | inactive |
| LINC01822 | 2 | 2.18 | 125 | 1.87 | 85.5 | inactive |
| LINC01822 | 3 | 0.737 | 96.6 | 0.308 | 99.5 | inactive |
| ZNF418 | 1 | 1.31 | 108 | 1.78 | 75.5 | inactive |
| ZNF418 | 2 | 0.254 | 86.9 | 0.819 | 78.3 | inactive |
| ZNF418 | 3 | -0.771 | 66.6 | -1.39 | 107 | inactive |
| ZNF418 | 4 | -0.673 | 68.5 | -0.866 | 96.2 | inactive |
| ZNF418 | 5 | 0.157 | 85 | -0.0765 | 96.9 | inactive |
| ZNF418 | 6 | 0.299 | 87.8 | 0.289 | 91 | inactive |
| CLPTM1L | 1 | -0.675 | 68.5 | -0.489 | 87 | inactive |
| CLPTM1L | 2 | 0.402 | 89.9 | 0.375 | 91 | inactive |
| CLPTM1L | 3 | -1.03 | 61.4 | -0.824 | 85.2 | inactive |
| ASB18 | 1 | -0.723 | 67.5 | -1.39 | 109 | inactive |
| ASB18 | 2 | -0.666 | 68.6 | 0.478 | 67.6 | inactive |
| ASB18 | 3 | -0.523 | 71.5 | -1.18 | 109 | inactive |
| NRK | 1 | -0.0031 | 81.8 | -0.212 | 96.7 | inactive |
| NRK | 2 | -0.666 | 68.6 | -0.597 | 89.8 | inactive |
| NRK | 3 | -0.0836 | 80.2 | -0.101 | 92.1 | inactive |
| CDK9 | 1 | -0.0535 | 80.8 | 1.41 | 62.3 | inactive |
| CDK9 | 2 | 0.279 | 87.4 | 0.132 | 94.4 | inactive |
| CDK9 | 3 | -0.378 | 74.4 | -0.903 | 105 | inactive |
| PLLP | 1 | 2.83 | 138 | 2.06 | 89.8 | inactive |
| PLLP | 2 | 0.298 | 87.8 | -0.259 | 105 | inactive |
| PLLP | 3 | -0.0732 | 80.4 | -0.612 | 106 | inactive |
| ZNF416 | 1 | -1.33 | 55.4 | -0.206 | 65.3 | inactive |
| ZNF416 | 2 | 0.46 | 91 | 0.0976 | 99.1 | inactive |
| ZNF416 | 3 | 0.356 | 89 | 0.389 | 89.7 | inactive |
| LST1 | 1 | -0.703 | 67.9 | -0.541 | 87.5 | inactive |
| LST1 | 2 | 0.152 | 84.9 | -0.316 | 103 | inactive |
| LST1 | 3 | -0.0657 | 80.6 | -0.478 | 102 | inactive |

Taken from above:
For “activity call”, LINC01822 #3 has inactive
PLLP #2, viable cells, % of control = 105
Result of ZNF418 #4 in “activity call”: inactive
Under “activity call”, ASB18 #2 shows inactive
LST1 #3, viable cells, % of control = 102
ASB18 #3, luciferase per cell, z-score = -1.18

Continued.
| gene | reagent no. | total luciferase, z-score | total luciferase, % of control | luciferase per cell, z-score | viable cells, % of control | activity call |
| --- | --- | --- | --- | --- | --- | --- |
| UBAC2 | 1 | -0.171 | 78.5 | -0.49 | 99.8 | inactive |
| UBAC2 | 2 | 0.0208 | 82.3 | 0.813 | 74.2 | inactive |
| UBAC2 | 3 | -0.209 | 77.7 | -0.562 | 101 | inactive |
| PIN4P1 | 1 | 1.91 | 120 | 1.8 | 83.4 | inactive |
| PIN4P1 | 2 | 1.55 | 113 | 1.45 | 86.1 | inactive |
| PIN4P1 | 3 | -1.16 | 58.8 | -0.985 | 85.2 | inactive |
| PMAIP1 | 1 | 0.572 | 93.3 | -0.416 | 116 | inactive |
| PMAIP1 | 2 | -2.43 | 33.5 | -1.55 | 56.4 | inactive |
| PMAIP1 | 3 | 3.43 | 150 | 2.13 | 95.6 | active |
| NQO1 | 1 | 0.226 | 86.4 | 0.736 | 79.5 | inactive |
| NQO1 | 2 | 0.301 | 87.9 | 0.282 | 91.2 | inactive |
| NQO1 | 3 | -0.348 | 75 | -0.687 | 100 | inactive |
| RAB12 | 1 | -1.15 | 59.1 | -1.04 | 86.9 | inactive |
| RAB12 | 2 | -0.633 | 69.3 | -0.821 | 96.1 | inactive |
| RAB12 | 3 | 0.174 | 85.3 | 0.253 | 89.2 | inactive |
| SPATA2L | 1 | 1.6 | 114 | 1.19 | 92.8 | inactive |
| SPATA2L | 2 | 2.11 | 124 | 2.25 | 76.6 | inactive |
| SPATA2L | 3 | 0.415 | 90.1 | -0.408 | 112 | inactive |
| SYCP1 | 1 | -0.128 | 79.3 | -0.192 | 93.3 | inactive |
| SYCP1 | 2 | 0.241 | 86.7 | -0.256 | 104 | inactive |
| SYCP1 | 3 | -0.19 | 78.1 | -0.505 | 99.7 | inactive |
